Measurements published in PMC8763317.
These are yes or no findings as the source states them, for the method shown. Binding seen in cells or lysates may run through a third protein. Here binding means that the protein was enriched with, or labelled near, the bait; the list need not be complete.

Protein sequences, listed by entry. Tags and fused reporters are not part of them.
UniProt Q13547: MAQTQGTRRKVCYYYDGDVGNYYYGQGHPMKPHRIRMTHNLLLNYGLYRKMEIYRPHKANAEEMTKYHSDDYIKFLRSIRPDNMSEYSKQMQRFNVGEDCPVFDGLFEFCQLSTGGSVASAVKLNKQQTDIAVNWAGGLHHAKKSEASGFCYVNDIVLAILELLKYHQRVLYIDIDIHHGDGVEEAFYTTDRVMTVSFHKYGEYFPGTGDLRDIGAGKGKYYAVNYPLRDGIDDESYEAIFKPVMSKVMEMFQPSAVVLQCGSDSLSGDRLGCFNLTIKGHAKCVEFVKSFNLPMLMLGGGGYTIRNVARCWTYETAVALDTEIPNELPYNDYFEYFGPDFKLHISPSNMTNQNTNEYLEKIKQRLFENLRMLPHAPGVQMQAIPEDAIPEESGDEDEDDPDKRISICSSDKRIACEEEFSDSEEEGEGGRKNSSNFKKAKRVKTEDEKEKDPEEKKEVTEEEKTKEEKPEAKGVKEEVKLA

Target: HDAC1-BirA* (UniProt Q13547)
Experiment: proximity labelling; BioID in HEK293T cells: BirA*-fused bait transiently transfected, 50 uM biotin for 18 hours; lysate sonicated, biotinylated proteins isolated on streptavidin agarose beads, trypsin digest, LC-MS/MS, label free quantitation; enrichment over BirA*-NLS control (Student's t-test, FDR 0.05, S0 = 2); triplicate or quadruplicate

Row | binding | Binder
1 | binds | ELMSAN1 (protein, UniProt Q6PJG2 1-1045) MNLQAQPKAQNKRKRCLFGGQEPAPKEQPPPLQPPQQSIRVKEEQYLGHEGPGGAVSTSQPVELPPPSSLALLNSVVYGPERTSAAMLSQQVASVKWPNSVMAPGRGPERGGGGGVSDSSWQQQPGQPPPHSTWNCHSLSLYSATKGSPHPGVGVPTYYNHPEALKREKAGGPQLDRYVRPMMPQKVQLEVGRPQAPLNSFHAAKKPPNQSLPLQPFQLAFGHQVNRQVFRQGPPPPNPVAAFPPQKQQQQQQPQQQQQQQQAALPQMPLFENFYSMPQQPSQQPQDFGLQPAGPLGQSHLAHHSMAPYPFPPNPDMNPELRKALLQDSAPQPALPQVQIPFPRRSRRLSKEGILPPSALDGAGTQPGQEATGNLFLHHWPLQQPPPGSLGQPHPEALGFPLELRESQLLPDGERLAPNGREREAPAMGSEEGMRAVSTGDCGQVLRGGVIQSTRRRRRASQEANLLTLAQKAVELASLQNAKDGSGSEEKRKSVLASTTKCGVEFSEPSLATKRAREDSGMVPLIIPVSVPVRTVDPTEAAQAGGLDEDGKGPEQNPAEHKPSVIVTRRRSTRIPGTDAQAQAEDMNVKLEGEPSVRKPKQRPRPEPLIIPTKAGTFIAPPVYSNITPYQSHLRSPVRLADHPSERSFELPPYTPPPILSPVREGSGLYFNAIISTSTIPAPPPITPKSAHRTLLRTNSAEVTPPVLSVMGEATPVSIEPRINVGSRFQAEIPLMRDRALAAADPHKADLVWQPWEDLESSREKQRQVEDLLTAACSSIFPGAGTNQELALHCLHESRGDILETLNKLLLKKPLRPHNHPLATYHYTGSDQWKMAERKLFNKGIAIYKKDFFLVQKLIQTKTVAQCVEFYYTYKKQVKIGRNGTLTFGDVDTSDEKSAQEEVEVDIKTSQKFPRVPLPRRESPSEERLEPKREVKEPRKEGEEEVPEIQEKEEQEEGRERSRRAAAVKATQTLQANESASDILILRSHESNAPGSAGGQASEKPREGTGKSRRALPFSEKKKKTETFSKTQNQENTFPCKKCGR
2 | binds | Sin3B (protein, UniProt O75182 1-1162) MAHAGGGSGGSGAGGPAGRGLSGARWGRSGSAGHEKLPVHVEDALTYLDQVKIRFGSDPATYNGFLEIMKEFKSQSIDTPGVIRRVSQLFHEHPDLIVGFNAFLPLGYRIDIPKNGKLNIQSPLTSQENSHNHGDGAEDFKQQVPYKEDKPQVPLESDSVEFNNAISYVNKIKTRFLDHPEIYRSFLEILHTYQKEQLNTRGRPFRGMSEEEVFTEVANLFRGQEDLLSEFGQFLPEAKRSLFTGNGPCEMHSVQKNEHDKTPEHSRKRSRPSLLRPVSAPAKKKMKLRGTKDLSIAAVGKYGTLQEFSFFDKVRRVLKSQEVYENFLRCIALFNQELVSGSELLQLVSPFLGKFPELFAQFKSFLGVKELSFAPPMSDRSGDGISREIDYASCKRIGSSYRALPKTYQQPKCSGRTAICKELDHWTLLQGSWTDDYCMSKFKNTCWIPGYSAGVLNDTWVSFPSWSEDSTFVSSKKTPYEEQLHRCEDERFELDVVLETNLATIRVLESVQKKLSRMAPEDQEKFRLDDSLGGTSEVIQRRAIYRIYGDKAPEIIESLKKNPVTAVPVVLKRLKAKEEEWREAQQGFNKIWREQYEKAYLKSLDHQAVNFKQNDTKALRSKSLLNEIESVYDEHQEQHSEGRSAPSSEPHLIFVYEDRQILEDAAALISYYVKRQPAIQKEDQGTIHQLLHQFVPSLFFSQQLDLGASEESADEDRDSPQGQTTDPSERKKPAPGPHSSPPEEKGAFGDAPATEQPPLPPPAPHKPLDDVYSLFFANNNWYFFLRLHQTLCSRLLKIYRQAQKQLLEYRTEKEREKLLCEGRREKGSDPAMELRLKQPSEVELEEYYPAFLDMVRSLLEGSIDPTQYEDTLREMFTIHAYVGFTMDKLVQNIARQLHHLVSDDVCLKVVELYLNEKKRGAAGGNLSSRCVRAARETSYQWKAERCMADENCFKVMFLQRKGQVIMTIELLDTEEAQTEDPVEVQHLARYVEQYVGTEGASSSPTEGFLLKPVFLQRNLKKFRRRWQSEQARALRGEARSSWKRLVGVESACDVDCRFKLSTHKMVFIVNSEDYMYRRGTLCRAKQVQPLVLLRHHQHFEEWHSRWLEDNVTVEAASLVQDWLMGEEDEDMVPCKTLCETVHVHGLPVTRYRVQYSRRPASP
